Assay [1] has as its target T1, Myc-TIPE2 (UniProt Q6P589).
T1 sequence: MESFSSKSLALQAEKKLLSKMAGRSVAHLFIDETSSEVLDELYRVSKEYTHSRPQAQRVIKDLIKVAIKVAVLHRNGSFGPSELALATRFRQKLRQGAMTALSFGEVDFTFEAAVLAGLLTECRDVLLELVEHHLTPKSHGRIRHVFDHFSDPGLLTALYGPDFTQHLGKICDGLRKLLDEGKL
The assay can be described thus: co-IP; 293T cells transiently co-transfected with the two tagged proteins; IP lysis buffer with protease and phosphatase inhibitors; about 1 mg protein with primary antibody or isotype IgG at 4 °C overnight; protein A-agarose beads; five washes in TBST; Western blot. On the technique in general: Immunoblotting shows a protein as a band on a membrane.

By UniProt entry, the sequences of proteins in these tests, tags left out. Where a name states a change or a piece, a line headed by the entry shows the natural chain unless it says otherwise.
UniProt P27958: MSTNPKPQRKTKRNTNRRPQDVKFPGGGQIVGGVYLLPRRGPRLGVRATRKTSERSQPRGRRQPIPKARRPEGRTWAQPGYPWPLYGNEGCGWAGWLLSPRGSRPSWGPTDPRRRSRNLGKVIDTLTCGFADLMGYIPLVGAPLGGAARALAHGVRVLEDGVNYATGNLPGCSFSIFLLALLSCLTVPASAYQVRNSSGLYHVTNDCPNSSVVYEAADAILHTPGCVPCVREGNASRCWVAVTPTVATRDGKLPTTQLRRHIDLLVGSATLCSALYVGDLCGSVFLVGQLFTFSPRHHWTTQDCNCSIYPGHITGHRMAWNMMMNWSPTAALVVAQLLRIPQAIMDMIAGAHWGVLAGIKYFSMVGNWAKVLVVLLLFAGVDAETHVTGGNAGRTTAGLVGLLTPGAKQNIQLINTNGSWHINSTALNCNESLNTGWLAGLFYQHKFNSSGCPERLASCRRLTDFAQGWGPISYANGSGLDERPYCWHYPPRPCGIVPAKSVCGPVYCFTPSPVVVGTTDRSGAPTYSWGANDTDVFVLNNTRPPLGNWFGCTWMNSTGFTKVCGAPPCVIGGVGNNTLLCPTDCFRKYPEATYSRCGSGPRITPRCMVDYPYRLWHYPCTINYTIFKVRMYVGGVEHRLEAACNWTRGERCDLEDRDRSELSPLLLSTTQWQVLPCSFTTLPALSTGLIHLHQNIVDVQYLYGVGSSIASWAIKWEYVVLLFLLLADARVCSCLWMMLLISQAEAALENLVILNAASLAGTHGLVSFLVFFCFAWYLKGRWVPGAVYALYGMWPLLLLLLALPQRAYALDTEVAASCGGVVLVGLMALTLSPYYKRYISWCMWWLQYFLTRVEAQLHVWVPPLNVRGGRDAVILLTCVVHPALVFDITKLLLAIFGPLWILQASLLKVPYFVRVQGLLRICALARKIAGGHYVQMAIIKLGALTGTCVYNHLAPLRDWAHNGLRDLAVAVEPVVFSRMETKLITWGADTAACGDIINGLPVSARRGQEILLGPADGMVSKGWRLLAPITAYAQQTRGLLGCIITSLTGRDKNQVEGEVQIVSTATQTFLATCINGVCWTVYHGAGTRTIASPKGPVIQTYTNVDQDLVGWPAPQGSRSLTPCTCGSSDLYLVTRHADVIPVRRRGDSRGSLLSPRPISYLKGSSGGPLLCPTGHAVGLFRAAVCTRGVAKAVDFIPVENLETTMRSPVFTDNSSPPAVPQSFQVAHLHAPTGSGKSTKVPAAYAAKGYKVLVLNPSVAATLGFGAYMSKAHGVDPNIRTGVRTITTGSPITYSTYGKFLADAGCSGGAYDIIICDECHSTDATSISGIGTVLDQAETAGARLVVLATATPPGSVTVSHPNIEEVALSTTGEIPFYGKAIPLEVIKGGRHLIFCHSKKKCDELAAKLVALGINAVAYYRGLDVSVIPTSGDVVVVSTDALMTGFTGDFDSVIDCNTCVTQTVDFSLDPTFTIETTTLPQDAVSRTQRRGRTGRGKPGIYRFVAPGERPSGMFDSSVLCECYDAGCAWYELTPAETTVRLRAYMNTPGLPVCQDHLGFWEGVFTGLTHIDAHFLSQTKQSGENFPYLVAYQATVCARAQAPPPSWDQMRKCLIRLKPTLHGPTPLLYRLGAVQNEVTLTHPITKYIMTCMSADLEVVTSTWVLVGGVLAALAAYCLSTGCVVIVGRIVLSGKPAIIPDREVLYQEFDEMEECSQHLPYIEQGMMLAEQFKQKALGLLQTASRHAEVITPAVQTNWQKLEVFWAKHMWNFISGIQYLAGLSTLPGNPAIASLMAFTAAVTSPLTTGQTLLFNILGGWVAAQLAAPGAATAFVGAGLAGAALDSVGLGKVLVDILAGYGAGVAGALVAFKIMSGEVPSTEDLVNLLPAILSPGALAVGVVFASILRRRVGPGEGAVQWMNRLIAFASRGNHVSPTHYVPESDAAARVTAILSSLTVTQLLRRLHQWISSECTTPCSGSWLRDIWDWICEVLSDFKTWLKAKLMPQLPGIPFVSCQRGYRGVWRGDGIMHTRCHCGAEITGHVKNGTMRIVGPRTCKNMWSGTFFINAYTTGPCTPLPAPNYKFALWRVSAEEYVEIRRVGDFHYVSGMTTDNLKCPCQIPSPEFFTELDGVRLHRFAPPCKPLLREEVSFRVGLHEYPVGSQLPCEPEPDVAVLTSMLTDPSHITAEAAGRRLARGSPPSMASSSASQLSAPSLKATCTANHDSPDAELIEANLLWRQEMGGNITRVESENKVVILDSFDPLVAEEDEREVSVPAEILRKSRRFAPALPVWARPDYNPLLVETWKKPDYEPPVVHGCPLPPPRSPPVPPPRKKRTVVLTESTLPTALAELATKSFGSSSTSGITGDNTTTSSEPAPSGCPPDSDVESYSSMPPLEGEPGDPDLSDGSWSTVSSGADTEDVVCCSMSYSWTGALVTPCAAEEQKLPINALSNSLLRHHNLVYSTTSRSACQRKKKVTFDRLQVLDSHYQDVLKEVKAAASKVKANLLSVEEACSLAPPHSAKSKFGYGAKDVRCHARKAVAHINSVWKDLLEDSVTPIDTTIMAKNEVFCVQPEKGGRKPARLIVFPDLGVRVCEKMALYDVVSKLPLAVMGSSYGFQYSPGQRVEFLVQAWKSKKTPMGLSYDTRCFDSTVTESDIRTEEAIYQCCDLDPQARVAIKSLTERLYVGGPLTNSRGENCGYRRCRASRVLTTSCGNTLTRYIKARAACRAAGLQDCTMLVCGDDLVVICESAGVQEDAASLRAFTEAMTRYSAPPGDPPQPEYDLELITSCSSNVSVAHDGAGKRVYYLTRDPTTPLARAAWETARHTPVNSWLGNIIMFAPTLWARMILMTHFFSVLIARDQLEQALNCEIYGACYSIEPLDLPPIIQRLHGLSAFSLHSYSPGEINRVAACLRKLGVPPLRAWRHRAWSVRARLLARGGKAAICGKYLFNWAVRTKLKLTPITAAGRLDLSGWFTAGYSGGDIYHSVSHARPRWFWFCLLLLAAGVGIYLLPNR

Assay [2] addresses T2, FLAG-TIPE2 (UniProt Q6P589).
T2 sequence: T1 sequence
The assay is described as above.

In assay [3] the target is T3, TIPE2 (stably expressed in Huh7 cells) (UniProt Q6P589).
T3 sequence: T1 sequence
In words: co-IP; Huh7 TIPE2 stable cells in a 10-cm dish transfected with 6 μg myc-NS5A plasmids; co-IP 48 h later 'as above'.

Consider three substances from PMC5126206.

These are yes or no findings as the source states them, for the method shown. Binding seen in cells or lysates may run through a third protein. A result given as binding can be weak or reduced; the word gives no strength. For part of these data: Where a sequence is shown, tags or fusion partners need not be part of it.

On to FLAG-NS5A (from UniProt P27958), for which the binding result in assay [1] was “binds”. For the substance “myc-NS5A (in 293T cells) (from UniProt P27958)”, the binding entry in assay [2] was “binds”. Regarding “myc-NS5A (in Huh7 TIPE2 stable cells) (from UniProt P27958)”, the binding entry in assay [3] is given as “binds”.
